Among the data in paper PMC4339652 are binding values, retold here.

The assay concerns the target T1, TolAIII (TolA domain III, residues 296-421), wild type (E. coli) (UniProt P19934).
T1 sequence: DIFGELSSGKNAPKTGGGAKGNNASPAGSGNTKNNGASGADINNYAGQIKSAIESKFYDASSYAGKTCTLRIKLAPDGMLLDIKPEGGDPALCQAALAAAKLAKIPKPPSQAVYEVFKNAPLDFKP
The assay is described as follows: SPR; ~500 RU TolAIII WT, D418P or K420P amine-coupled to CM5; ColN-T, ColA-T or G3p-N1 at 5 µM injected at 30 µl/min for 120 s (up to 250 µM, data not shown); HEPES-EP, 25 °C; blank surface subtracted; both purified.

These are yes or no findings as the source states them, for the method shown. Some results given as binding are weak or reduced against the parent protein; the word gives no strength.

B1: Colicin N translocation domain, ColN-T (ColN 1-90) (domain or fragment, UniProt P08083 1-90)
chain: MGSNGADNAHNNAFGGGKNPGIGNTSGAGSNGSASSNRGNSNGWSWSNKPHKNDGFHSDGSYHITFHGDNNSKPKPGGNSGNRGNNGDGA
On to B1, for which the binding entry is given as “binds”.
